From PubChem BioAssay AID1347076 (National Center for Advancing Translational Sciences (NCATS), 2019)
About 13,000 (3.2%) of roughly 400,000 compounds were called active. The inconclusive results got no clear call from the source; some entries with a clear call stand among them for comparison. Calls follow the shape of the dose curve; as a rule, active = well fitted cell-killing curve with a large enough effect; inconclusive = small, poorly fitted or top-dose-only effect, or effect the other way; inactive = flat fitted curve, though single readings scatter. Potencies of inconclusive entries are doubtful fits and often do not repeat.

Test: qHTS assay for MDR1-selective chemotherapeutics: Primary screen using the drug-selected MDR subline cells KB-V1; also: nearly all actives have a fitted effect of over 60% in size
Conditions: KB-V1 MDR cells viability, CellTiter-Glo, 72 h; activity change, negative = cytotoxicity: at 46.1 µM (top of the series)
Method in brief: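 Readout: CellTiter-Glo luminescence, 10 min after addition. Cells: KB-V1 MDR subline, 72 h at 37 degrees C with compound. Analysis: corrected, normalized data fitted to concentration-effect curves.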
% is scaled to controls: 0 for no effect and ±100 for the full control effect; potency is read from the fitted curve at half-maximal effect.

Q: For `Cc1ccc(C)c(N2CCN(C(=O)C3CCN(S(=O)(=O)c4c(C)noc4C)CC3)CC2)c1`, which Potency is on record?
A: inconclusive: 2.06 µM [cytotoxic, full curve, poor fit]

Q: With `Cc1ccc(NS(=O)(=O)c2ccc3c(c2)NC(=O)C(C)C(=O)N3)cc1C` (configuration not stated) as the molecule, how does the Potency read?
A: inactive

Q: Which Potency does the source give for `Cc1c(C(=O)N(C)Cc2ccccc2)oc2c(Cl)cccc12` here?
A: inconclusive: 18.4 µM [cytotoxic, partial curve]

Q: For `COc1ccc(C(=O)N2CCCC(c3cc(C(=O)Nc4ccccc4)no3)C2)cc1` (configuration not stated), which Potency is on record?
A: inactive

Q: For `COc1ccnc(Oc2ccc(F)cc2)c1C(=O)N/C=N/OCc1ccc(Cl)cc1Cl`, which activity change, negative = cytotoxicity is on record?
A: inconclusive: -33.6% [cytotoxic]

Q: Which Potency does the source give for `CSc1ccc(CCNC(=O)c2ccc3c(Cl)c4c(nc3c2)CCCC4)cc1` here?
A: inactive

Q: For `Cc1nn2c(=O)cc(COC(=O)c3cccs3)nc2s1`, which Potency is on record?
A: inactive

Q: With `Nc1ccc(/C=C/c2ccnc3ccccc23)c(N)c1` as the molecule, how does the Potency read?
A: inactive

Q: For `COc1ccc(CN(C)CC(=O)NC2CCCc3ccccc32)cc1OC` (configuration not stated), which Potency is on record?
A: inconclusive: 18.4 µM [cytotoxic, single point]

Q: Which Potency does the source give for `Nc1n[nH]c2c1C1(CCCCC1)Cc1ccccc1-2` here?
A: inconclusive: 25.9 µM [cytotoxic, single point]

Q: Which Potency does the source give for `C(=N\Nc1nc2ccccc2[nH]1)/c1c[nH]c2ccccc12` here?
A: inactive

Q: For `Cc1cccc(-c2noc(CN(C(=O)c3ccc(Br)o3)C(C)C)n2)c1`, which Potency is on record?
A: inconclusive: 29.1 µM [cytotoxic, single point]

Q: For `CC(C)CCn1c(Sc2nc3ccccc3s2)nc2c1c(=O)[nH]c(=O)n2C`, which Potency is on record?
A: inconclusive: 9.2 µM [cytotoxic, partial curve]

Q: Which Potency does the source give for `N#Cc1nc(Cc2ccccc2)oc1NCCCn1ccnc1` here?
A: inactive

Q: Which Potency does the source give for `N#CCC(=O)N/N=C\c1cccc(OC/C=C/c2ccccc2)c1` here?
A: inconclusive: 20.6 µM [rising, single point]

Q: For `CN(C)c1ccc(C(CNS(=O)(=O)c2ccc(Cl)cc2)N2CCOCC2)cc1` (configuration not stated), which Potency is on record?
A: inactive

Q: With `CCCCN(C(=O)c1ccc(-n2nc(C)cc2C)cc1)c1c(N)n(CCC)c(=O)[nH]c1=O` as the molecule, how does the Potency read?
A: inactive

Q: With `CC(C)(C)OC(=O)CNC(=O)c1[nH]cnc1C(=O)N[C@@H](Cc1ccccc1)C(=O)OC(C)(C)C` as the molecule, how does the Potency read?
A: inconclusive: 23.1 µM [cytotoxic, single point]

Q: Which Potency does the source give for `CCCc1nnc2n1N=C(c1ccc(OC)c(OC)c1)CS2` here?
A: inconclusive: 25.9 µM [cytotoxic, partial curve, poor fit]

Q: With `Cc1ccc(O)c(C=Nc2cc(C)ccc2O)c1` as the molecule, how does the Potency read?
A: inactive

Q: With `COc1ccc(NC(=O)CN(C2CCCCC2)S(C)(=O)=O)cc1Cl` as the molecule, how does the Potency read?
A: inconclusive: 16.4 µM [cytotoxic, single point]

Q: Which Potency does the source give for `O=C(NCCS(=O)(=O)NCc1ccc2c(c1)OCO2)c1ccccc1` here?
A: inconclusive: 18.4 µM [cytotoxic, partial curve, poor fit]

Q: With `O=C(CCn1c(=O)c2ccccc2n(Cc2cccc(Cl)c2)c1=O)NCCc1ccccc1` as the molecule, how does the Potency read?
A: inactive

Q: Which Potency does the source give for `COc1ccc(C(=O)Nc2ccc3c(c2)nc2n3CCSC2)cc1` here?
A: inconclusive: 14.6 µM [cytotoxic, partial curve, poor fit]

Q: With `CCOc1cc(C2C3=C(CCCC3=O)NC3=C2C(=O)CCC3)ccc1OCCO` as the molecule, how does the Potency read?
A: inactive

Q: Which Potency does the source give for `COc1ccc(NC(=O)c2cccnc2NCCc2ccccc2)cc1` here?
A: inconclusive: 23.1 µM [cytotoxic, partial curve, poor fit]

Q: For `C=CCOc1ccc(/C(CC)=N/O)cc1OC`, which Potency is on record?
A: inconclusive: 25.9 µM [cytotoxic, single point]

Q: For `Cc1ccc(S(=O)(=O)N2CCN(C(=O)N3CCCCC3)CC2)c(C)c1`, which Potency is on record?
A: inactive

Q: Which Potency does the source give for `COCC(=O)Nc1c(C(=O)Nc2ccc3c(c2)OCO3)oc2ccccc12` here?
A: inactive

Q: With `CCCCn1nnnc1C(c1cc2ccccc2o1)N(C)Cc1ccccc1` (configuration not stated) as the molecule, how does the Potency read?
A: inconclusive: 9.2 µM [cytotoxic, partial curve]

Q: Which Potency does the source give for `CCc1cc(-c2[nH]ncc2-c2ccc([N+](=O)[O-])cc2)c(O)cc1OC` here?
A: inactive

Q: With `CCCc1nc(SCC(=O)N2CCCC2)c2ccccc2n1` as the molecule, how does the Potency read?
A: inactive

Q: With `O=C(NCCc1ccc(O)cc1)c1[nH]c(C(F)(F)F)nc1-c1ccccc1` as the molecule, how does the Potency read?
A: inactive

Q: With `O=Cc1cc2c(cc1[B-](F)(F)F)OCO2` as the molecule, how does the Potency read?
A: inactive

Q: Which Potency does the source give for `CCOc1cccc(N(C(=O)c2ccco2)C(C(=O)NC2CCCC2)c2cccnc2)c1` (configuration not stated) here?
A: inconclusive: 18.4 µM [cytotoxic, single point]

Q: Which Potency does the source give for `O=c1c(-c2nnc(SCc3ccc(Cl)cc3)o2)cccn1Cc1ccccc1` here?
A: active: 4.61 µM

Q: Which Potency does the source give for `O=C(Oc1c(Br)cc([N+](=O)[O-])cc1Br)c1cccnc1` here?
A: inconclusive: 16.4 µM [cytotoxic, single point]

Q: With `C=C(C(=O)Oc1c(C(C)(C)C)cccc1C(C)(C)C)c1ccccc1` as the molecule, how does the Potency read?
A: inconclusive: 5.17 µM [cytotoxic, full curve]

Q: Which Potency does the source give for `COc1ccc([N+](=O)[O-])cc1NC1CCN(C(=O)c2cccs2)CC1` here?
A: inactive

Q: With `Cc1ccc(C)c(N2CCN(C(=O)C3CCCN(c4ncnc5c4nc4n5CCCCC4)C3)CC2)c1` (configuration not stated) as the molecule, how does the Potency read?
A: inconclusive: 20.6 µM [cytotoxic, single point]

Q: Which Potency does the source give for `COc1ccccc1CSc1nc2ccccc2[nH]1` here?
A: inconclusive: 20.6 µM [cytotoxic, single point]

Q: For `CS(=O)(=O)N(CC(=O)N1CCN(c2ccccc2F)CC1)c1cc(C(F)(F)F)ccc1Cl`, which Potency is on record?
A: inconclusive: 7.31 µM [cytotoxic, partial curve]

Q: Which Potency does the source give for `COc1cccc(NC(=O)C(OC(=O)c2ccc([N+](=O)[O-])o2)c2ccccc2)c1` (configuration not stated) here?
A: inconclusive: 29.1 µM [rising, single point]

Q: With `COc1ccc(Nc2c[nH]c(=O)[nH]c2=O)cc1` as the molecule, how does the Potency read?
A: inactive

Q: For `COc1cc(Nc2ncc3c(n2)CCN(Cc2cccc(C)c2)C3)cc(OC)c1`, which Potency is on record?
A: inconclusive: 29.1 µM [cytotoxic, single point]

Q: With `COC1OC(CO)C(N=C(C)C)C1O` (configuration not stated) as the molecule, how does the Potency read?
A: inconclusive: 23.1 µM [cytotoxic, single point]

Q: Which Potency does the source give for `Cn1c(=O)c2c(nc(Oc3ccccc3Cl)n2Cc2ccc(C#N)cc2)n(C)c1=O` here?
A: inconclusive: 5.17 µM [rising, partial curve, poor fit]
